According to the supplement of paper PMC10849652:
The other results are listed elsewhere or left out.

Amino acid sequences for entries named in this document (tags omitted). A change or cut given only in a name is not applied to a line headed by its entry.
UniProt Q12797: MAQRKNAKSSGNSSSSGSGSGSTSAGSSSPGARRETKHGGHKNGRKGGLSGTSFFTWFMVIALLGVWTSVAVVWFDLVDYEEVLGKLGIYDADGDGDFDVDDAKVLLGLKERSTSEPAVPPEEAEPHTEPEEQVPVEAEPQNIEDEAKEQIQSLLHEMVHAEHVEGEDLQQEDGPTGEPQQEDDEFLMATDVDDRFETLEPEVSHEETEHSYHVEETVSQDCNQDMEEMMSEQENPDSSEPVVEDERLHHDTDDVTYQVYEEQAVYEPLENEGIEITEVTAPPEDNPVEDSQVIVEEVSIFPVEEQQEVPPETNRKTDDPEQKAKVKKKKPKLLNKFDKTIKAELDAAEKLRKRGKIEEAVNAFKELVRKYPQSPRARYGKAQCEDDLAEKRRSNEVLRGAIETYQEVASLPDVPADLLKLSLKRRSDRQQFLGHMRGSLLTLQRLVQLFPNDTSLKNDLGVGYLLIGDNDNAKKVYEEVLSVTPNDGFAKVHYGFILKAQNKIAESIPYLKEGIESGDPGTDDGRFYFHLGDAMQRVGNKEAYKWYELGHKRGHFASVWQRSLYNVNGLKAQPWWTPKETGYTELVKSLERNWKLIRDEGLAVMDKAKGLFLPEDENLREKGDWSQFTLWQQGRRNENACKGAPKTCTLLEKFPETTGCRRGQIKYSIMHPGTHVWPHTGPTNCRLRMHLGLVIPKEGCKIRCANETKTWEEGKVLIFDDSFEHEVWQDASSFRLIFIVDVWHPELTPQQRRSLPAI
UniProt O95260: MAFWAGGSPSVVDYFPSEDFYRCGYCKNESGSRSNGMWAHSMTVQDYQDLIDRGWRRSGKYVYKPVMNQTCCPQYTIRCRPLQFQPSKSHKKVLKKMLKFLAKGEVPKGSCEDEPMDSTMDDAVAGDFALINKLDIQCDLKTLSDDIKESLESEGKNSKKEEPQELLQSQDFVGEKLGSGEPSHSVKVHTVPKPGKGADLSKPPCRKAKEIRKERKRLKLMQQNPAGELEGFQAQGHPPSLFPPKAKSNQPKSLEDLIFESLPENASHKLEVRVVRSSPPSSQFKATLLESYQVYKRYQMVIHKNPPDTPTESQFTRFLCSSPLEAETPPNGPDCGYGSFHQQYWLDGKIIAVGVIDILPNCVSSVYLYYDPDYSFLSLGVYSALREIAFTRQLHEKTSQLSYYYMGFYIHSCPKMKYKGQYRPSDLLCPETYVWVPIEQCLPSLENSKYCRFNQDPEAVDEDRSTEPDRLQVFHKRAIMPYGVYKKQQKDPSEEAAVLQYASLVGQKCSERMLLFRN
UniProt Q5TC12: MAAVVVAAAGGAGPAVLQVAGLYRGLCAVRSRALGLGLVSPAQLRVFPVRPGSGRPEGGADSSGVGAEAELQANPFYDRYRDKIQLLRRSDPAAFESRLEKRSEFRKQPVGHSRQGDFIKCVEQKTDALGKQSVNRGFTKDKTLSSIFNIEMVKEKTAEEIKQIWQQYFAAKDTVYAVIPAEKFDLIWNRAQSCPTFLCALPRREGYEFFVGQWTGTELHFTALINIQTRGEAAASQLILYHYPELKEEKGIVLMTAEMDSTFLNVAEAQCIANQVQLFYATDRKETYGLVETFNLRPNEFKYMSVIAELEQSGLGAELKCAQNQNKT
UniProt Q96BY7: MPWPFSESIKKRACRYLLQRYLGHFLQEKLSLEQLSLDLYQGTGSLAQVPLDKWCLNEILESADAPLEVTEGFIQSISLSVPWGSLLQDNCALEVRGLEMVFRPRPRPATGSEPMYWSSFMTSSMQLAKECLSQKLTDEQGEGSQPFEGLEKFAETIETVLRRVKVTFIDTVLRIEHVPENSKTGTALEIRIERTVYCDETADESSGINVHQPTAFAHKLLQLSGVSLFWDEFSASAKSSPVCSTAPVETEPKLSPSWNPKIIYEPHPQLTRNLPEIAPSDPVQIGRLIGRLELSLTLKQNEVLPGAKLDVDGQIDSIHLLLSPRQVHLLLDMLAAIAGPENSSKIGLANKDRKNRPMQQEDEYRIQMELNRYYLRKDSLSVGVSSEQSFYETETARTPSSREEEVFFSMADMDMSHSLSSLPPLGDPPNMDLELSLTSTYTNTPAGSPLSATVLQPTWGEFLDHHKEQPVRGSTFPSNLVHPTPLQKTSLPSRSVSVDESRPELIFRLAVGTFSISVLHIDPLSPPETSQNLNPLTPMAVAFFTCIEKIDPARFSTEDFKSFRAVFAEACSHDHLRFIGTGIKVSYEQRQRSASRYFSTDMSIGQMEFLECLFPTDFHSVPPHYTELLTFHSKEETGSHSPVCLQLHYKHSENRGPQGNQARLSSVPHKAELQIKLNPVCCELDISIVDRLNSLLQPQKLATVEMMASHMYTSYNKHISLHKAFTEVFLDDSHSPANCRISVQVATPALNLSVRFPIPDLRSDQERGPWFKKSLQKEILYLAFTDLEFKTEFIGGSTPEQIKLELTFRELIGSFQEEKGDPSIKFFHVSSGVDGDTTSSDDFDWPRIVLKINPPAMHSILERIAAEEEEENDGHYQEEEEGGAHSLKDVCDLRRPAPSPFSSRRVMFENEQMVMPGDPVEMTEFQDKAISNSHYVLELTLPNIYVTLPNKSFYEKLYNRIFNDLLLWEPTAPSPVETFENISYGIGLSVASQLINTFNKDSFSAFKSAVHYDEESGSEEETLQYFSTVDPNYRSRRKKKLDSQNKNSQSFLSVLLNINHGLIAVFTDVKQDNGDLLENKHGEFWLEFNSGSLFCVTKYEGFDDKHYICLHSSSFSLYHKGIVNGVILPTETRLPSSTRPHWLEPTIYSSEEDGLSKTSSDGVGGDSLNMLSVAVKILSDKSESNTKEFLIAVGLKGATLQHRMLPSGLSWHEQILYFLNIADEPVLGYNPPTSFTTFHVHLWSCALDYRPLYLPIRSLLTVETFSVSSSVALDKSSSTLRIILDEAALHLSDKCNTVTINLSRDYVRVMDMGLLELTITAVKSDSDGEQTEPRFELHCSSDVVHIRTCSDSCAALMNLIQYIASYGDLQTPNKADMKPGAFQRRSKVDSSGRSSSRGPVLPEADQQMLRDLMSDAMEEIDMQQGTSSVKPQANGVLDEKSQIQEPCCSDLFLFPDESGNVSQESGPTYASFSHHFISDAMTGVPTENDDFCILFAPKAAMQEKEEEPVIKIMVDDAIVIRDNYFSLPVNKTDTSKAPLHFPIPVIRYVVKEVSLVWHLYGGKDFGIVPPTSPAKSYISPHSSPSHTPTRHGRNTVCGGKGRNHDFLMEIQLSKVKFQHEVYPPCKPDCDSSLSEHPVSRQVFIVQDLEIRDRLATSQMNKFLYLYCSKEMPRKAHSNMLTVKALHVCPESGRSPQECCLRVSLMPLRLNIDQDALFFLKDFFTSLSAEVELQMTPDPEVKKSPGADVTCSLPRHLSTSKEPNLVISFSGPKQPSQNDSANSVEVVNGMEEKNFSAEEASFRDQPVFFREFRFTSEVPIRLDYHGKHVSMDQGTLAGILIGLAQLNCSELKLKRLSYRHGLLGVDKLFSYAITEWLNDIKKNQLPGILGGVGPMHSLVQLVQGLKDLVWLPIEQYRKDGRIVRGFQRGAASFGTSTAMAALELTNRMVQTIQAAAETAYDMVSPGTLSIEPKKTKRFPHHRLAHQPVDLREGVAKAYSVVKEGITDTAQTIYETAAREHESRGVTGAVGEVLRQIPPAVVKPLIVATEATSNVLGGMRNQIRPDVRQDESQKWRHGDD
UniProt P16615: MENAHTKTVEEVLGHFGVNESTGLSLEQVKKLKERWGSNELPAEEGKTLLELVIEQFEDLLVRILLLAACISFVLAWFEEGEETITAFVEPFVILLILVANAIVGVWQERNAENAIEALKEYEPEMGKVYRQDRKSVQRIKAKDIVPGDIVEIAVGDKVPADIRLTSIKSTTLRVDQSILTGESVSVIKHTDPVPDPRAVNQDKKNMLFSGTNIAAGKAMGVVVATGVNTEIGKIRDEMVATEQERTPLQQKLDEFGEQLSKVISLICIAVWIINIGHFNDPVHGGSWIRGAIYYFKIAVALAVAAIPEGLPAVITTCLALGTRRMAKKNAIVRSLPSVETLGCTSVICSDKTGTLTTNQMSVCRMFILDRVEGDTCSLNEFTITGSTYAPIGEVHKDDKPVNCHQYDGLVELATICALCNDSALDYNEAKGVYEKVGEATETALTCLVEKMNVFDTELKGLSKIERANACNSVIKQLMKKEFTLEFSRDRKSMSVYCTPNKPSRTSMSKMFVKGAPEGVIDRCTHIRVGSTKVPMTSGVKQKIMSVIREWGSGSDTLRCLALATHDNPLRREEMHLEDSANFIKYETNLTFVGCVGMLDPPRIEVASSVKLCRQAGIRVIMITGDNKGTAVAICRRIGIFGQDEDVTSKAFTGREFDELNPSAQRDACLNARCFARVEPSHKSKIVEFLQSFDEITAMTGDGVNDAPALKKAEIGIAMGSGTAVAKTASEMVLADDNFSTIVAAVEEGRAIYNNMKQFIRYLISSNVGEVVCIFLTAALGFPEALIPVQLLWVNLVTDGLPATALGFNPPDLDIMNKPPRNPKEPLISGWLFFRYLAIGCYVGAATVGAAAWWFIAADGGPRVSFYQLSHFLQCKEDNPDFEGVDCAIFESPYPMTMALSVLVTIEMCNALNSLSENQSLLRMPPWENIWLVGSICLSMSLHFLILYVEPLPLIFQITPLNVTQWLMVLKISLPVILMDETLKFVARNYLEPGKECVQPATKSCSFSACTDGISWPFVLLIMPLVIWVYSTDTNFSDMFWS
UniProt P36543, whole entry, looked up: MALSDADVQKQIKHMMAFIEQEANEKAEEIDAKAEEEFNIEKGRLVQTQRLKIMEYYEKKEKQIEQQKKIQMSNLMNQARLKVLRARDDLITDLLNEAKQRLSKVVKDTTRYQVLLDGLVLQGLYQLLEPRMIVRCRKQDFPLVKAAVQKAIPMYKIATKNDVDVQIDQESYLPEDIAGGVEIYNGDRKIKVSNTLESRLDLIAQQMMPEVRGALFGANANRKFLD
UniProt O95376: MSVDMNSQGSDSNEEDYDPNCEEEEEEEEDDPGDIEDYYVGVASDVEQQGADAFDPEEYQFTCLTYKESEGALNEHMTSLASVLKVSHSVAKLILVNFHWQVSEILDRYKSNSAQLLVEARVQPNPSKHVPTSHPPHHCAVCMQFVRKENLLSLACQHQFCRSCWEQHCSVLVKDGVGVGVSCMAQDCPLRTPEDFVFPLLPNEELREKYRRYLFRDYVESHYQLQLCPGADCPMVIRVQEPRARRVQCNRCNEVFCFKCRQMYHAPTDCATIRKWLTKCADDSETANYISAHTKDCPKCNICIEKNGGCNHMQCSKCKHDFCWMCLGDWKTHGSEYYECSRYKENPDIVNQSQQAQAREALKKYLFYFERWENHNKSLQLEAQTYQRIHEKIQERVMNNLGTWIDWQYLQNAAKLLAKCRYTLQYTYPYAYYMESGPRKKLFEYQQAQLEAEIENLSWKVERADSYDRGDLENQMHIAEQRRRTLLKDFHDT
UniProt O95352: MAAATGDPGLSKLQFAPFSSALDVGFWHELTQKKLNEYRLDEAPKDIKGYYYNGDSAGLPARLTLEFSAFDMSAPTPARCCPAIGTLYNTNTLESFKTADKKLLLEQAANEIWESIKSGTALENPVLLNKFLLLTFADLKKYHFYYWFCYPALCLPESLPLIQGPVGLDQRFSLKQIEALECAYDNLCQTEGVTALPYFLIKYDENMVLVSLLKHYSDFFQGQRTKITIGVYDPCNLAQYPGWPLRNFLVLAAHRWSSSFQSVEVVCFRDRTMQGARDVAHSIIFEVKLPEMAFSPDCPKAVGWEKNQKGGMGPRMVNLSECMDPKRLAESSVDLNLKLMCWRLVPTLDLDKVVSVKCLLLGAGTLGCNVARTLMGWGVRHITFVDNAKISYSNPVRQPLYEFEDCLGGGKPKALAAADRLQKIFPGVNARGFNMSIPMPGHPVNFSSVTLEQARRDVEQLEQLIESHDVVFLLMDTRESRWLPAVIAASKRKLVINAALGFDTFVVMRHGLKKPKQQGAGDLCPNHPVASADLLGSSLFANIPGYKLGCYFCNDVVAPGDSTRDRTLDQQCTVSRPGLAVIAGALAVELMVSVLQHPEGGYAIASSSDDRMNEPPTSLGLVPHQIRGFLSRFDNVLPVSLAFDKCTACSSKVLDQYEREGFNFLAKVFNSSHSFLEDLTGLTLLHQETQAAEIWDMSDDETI
UniProt P49407: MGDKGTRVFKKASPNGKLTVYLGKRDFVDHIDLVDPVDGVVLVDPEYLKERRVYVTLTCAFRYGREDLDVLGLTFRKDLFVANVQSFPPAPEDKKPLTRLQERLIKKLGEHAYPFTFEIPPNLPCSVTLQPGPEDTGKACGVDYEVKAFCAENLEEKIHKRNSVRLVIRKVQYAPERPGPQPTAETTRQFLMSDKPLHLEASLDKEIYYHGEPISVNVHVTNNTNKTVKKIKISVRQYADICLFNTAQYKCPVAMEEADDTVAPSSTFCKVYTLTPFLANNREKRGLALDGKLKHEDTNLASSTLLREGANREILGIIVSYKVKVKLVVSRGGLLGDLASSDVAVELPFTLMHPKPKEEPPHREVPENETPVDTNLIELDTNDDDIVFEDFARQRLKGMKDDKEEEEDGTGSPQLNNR

Legend:
Experiment in all cases: log2 fold change, soluble protein after heating vs DMSO (PISA); higher = thermal stabilisation; K562 cells, 10 uM, 30 min; active = over 0.2 and 3.5 SD of the protein, either way, in both replicates (recomputed)
[1] = compound: CC[C@@H]1C(=O)N(C)c2cnc(Nc3ccc(C(=O)NC4CCN(C)CC4)cc3OC)nc2N1C1CCCC1
Method in brief: (§1)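 K562 cells (2×10^6 cells/mL) were treated with 10 μM compound for 30 min, and aliquots were heated for 3 min over 48°C-58°C. Pooled aliquots were extracted in PBS with 0.5% NP-40 at 4°C, and the supernatant after 21,000xg for 90 min was measured by TMTpro 16plex LC-MS/MS with channel sums equalised. Reported thermal stability, relative to control samples and from duplicates, is a log2 fold change.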

volasertib = compound: CC[C@@H]1C(=O)N(C)c2cnc(Nc3ccc(C(=O)N[C@H]4CC[C@H](N5CCN(CC6CC6)CC5)CC4)cc3OC)nc2N1C(C)C [volasertib]
Method in brief: as §1

[2] = compound: CC[C@H](C)N1C=C(C2=C(C=C(C=C21)C3=CN=C(C=C3)N4CCNCC4)C(=O)NCC5=C(C=C(NC5=O)C)C)C
Method in brief: as §1

epoxomicin = compound: CC[C@H](C)[C@@H](C(=O)N[C@@H]([C@@H](C)O)C(=O)N[C@@H](CC(C)C)C(=O)[C@]1(CO1)C)NC(=O)[C@H]([C@@H](C)CC)N(C)C(=O)C [epoxomicin]
Method in brief: as §1

[3] = compound: CCn1c(C(=O)N(C2CC2)C2CC2)cc2c3c(ncn3C)c(Nc3cc(C)n(C)n3)nc21
Method in brief: as §1

[4] = compound: CCn1cc(-c2ccnc3[nH]c(-c4cccc(CN(C)C)c4)cc23)c(-c2ccc(NC(=O)N(C)C)cc2)n1
Method in brief: as §1

[5] = compound: CN(C)CC(=O)Nc1ccc2[nH]c(=O)c3ccccc3c2c1
Method in brief: as §1

rosiglitazone = compound: CN(CCOC1=CC=C(C=C1)C[C@H]2C(=O)NC(=O)S2)C3=CC=CC=N3 (racemic) [rosiglitazone]
Method in brief: as §1

[6] = compound: CN1C2=C(C3=C1C(=O)N(N=C3)CC4=CC(=CC=C4)N)SC(=C2)S(=O)C
Method in brief: as §1

[7] = compound: CN1CCC(CNc2ccc3ncc(-c4cccc(OC(F)(F)F)c4)n3n2)CC1
Method in brief: as §1

saracatinib = compound: CN1CCN(CCOc2cc(OC3CCOCC3)c3c(Nc4c(Cl)ccc5c4OCO5)ncnc3c2)CC1 [saracatinib]
Method in brief: as §1

sotrastaurin = compound: CN1CCN(c2nc(C3=C(c4c[nH]c5ccccc45)C(=O)NC3=O)c3ccccc3n2)CC1 [sotrastaurin]
Method in brief: as §1

alvocidib = compound: CN1CC[C@H](c2c(O)cc(O)c3c(=O)cc(-c4ccccc4Cl)oc23)[C@H](O)C1 [alvocidib]
Method in brief: as §1

Tubastatin A = compound: CN1CCc2c(c3ccccc3n2Cc2ccc(C(=O)NO)cc2)C1 [Tubastatin A]
Method in brief: as §1

[8] = compound: CNC(=O)C1=CC=CC=C1NC2=NC(=NC=C2Cl)NC3=C(C=C(C=C3)N4CCOCC4)OC
Method in brief: as §1

defactinib = compound: CNC(=O)c1ccc(Nc2ncc(C(F)(F)F)c(NCc3nccnc3N(C)S(C)(=O)=O)n2)cc1 [defactinib]
Method in brief: as §1

rucaparib = compound: CNCc1ccc(-c2[nH]c3cc(F)cc4c3c2CCNC4=O)cc1 [rucaparib]
Method in brief: as §1

[9] = compound: CNc1nc(-c2ccc3c(N)n[nH]c3c2)cc(N2C[C@@H](C(=O)NC3CCCCC3)CC[C@H]2C)n1
Method in brief: as §1

encorafenib = compound: COC(=O)N[C@@H](C)CNc1nccc(-c2cn(C(C)C)nc2-c2cc(Cl)cc(NS(C)(=O)=O)c2F)n1 [encorafenib]
Method in brief: as §1

[10] = compound: COC(=O)[C@H](CCSC)NC(=O)C1=C(C=C(C=C1)NC[C@H](CS)N)C2=CC=CC=C2
Method in brief: as §1

Measured: log2 fold change

ASPH (UniProt Q12797)
inactive: [1] 0.109 | volasertib 0.064 | [2] -0.005 | epoxomicin -0.113 | [3] 0.026 | [4] 0.097 | [5] -0.061 | rosiglitazone -0.052 | [6] 0.086 | [7] 0.129 | saracatinib -0.009 | sotrastaurin -0.088 | alvocidib 0.132 | Tubastatin A 0.037 | [8] -0.016 | defactinib 0.049 | rucaparib 0.031 | [9] -0.013 | encorafenib 0.048 | [10] -0.056

ATP5F1B (UniProt P06576)
inactive: [1] 0 | volasertib 0.072 | [2] -0.049 | epoxomicin -0.007 | [3] 0.006 | [4] 0.006 | [5] -0.023 | rosiglitazone -0.023 | [6] -0.008 | [7] 0.05 | saracatinib 0.019 | sotrastaurin 0.053 | alvocidib 0.005 | Tubastatin A -0.009 | [8] 0.002 | defactinib 0.003 | rucaparib -0.038 | [9] -0.026 | encorafenib -0.02 | [10] 0.014

ATE1 isoform 2 (UniProt O95260)
inactive: [1] -0.003 | volasertib -0.06 | [2] -0.066 | epoxomicin 0.068 | [3] -0.017 | [4] -0.157 | [5] 0.053 | rosiglitazone 0.039 | [6] -0.046 | [7] -0.061 | saracatinib 0.015 | sotrastaurin 0.063 | alvocidib -0.104 | Tubastatin A -0.052 | [8] 0.019 | defactinib -0.099 | rucaparib -0.224 | [9] -0.043 | encorafenib 0.059 | [10] 0.029

Copied from the results shown (2 entries):
ATP5F1B (UniProt P06576)
inactive: [1] 0 | volasertib 0.072 | [2] -0.049 | epoxomicin -0.007 | [3] 0.006 | [4] 0.006 | [5] -0.023 | rosiglitazone -0.023 | [6] -0.008 | [7] 0.05 | saracatinib 0.019 | sotrastaurin 0.053 | alvocidib 0.005 | Tubastatin A -0.009 | [8] 0.002 | defactinib 0.003 | rucaparib -0.038 | [9] -0.026 | encorafenib -0.02 | [10] 0.014

ATE1 isoform 2 (UniProt O95260)
inactive: [1] -0.003 | volasertib -0.06 | [2] -0.066 | epoxomicin 0.068 | [3] -0.017 | [4] -0.157 | [5] 0.053 | rosiglitazone 0.039 | [6] -0.046 | [7] -0.061 | saracatinib 0.015 | sotrastaurin 0.063 | alvocidib -0.104 | Tubastatin A -0.052 | [8] 0.019 | defactinib -0.099 | rucaparib -0.224 | [9] -0.043 | encorafenib 0.059 | [10] 0.029

More entries

ATPAF1 (UniProt Q5TC12)
inactive: [1] 0.009 | volasertib -0.122 | [2] 0.002 | epoxomicin 0.08 | [3] 0.039 | [4] -0.024 | [5] -0.005 | rosiglitazone -0.021 | [6] -0.057 | [7] 0.076 | saracatinib 0.042 | sotrastaurin -0.009 | alvocidib -0.055 | Tubastatin A -0.019 | [8] -0.033 | defactinib -0.094 | rucaparib 0.021 | [9] -0.08 | encorafenib -0.005 | [10] 0.01

ATG2B (UniProt Q96BY7)
inactive: [1] -0.036 | volasertib -0.076 | [2] -0.025 | epoxomicin 0.01 | [3] 0.005 | [4] -0.013 | [5] 0.001 | rosiglitazone 0.004 | [6] -0.018 | [7] -0.117 | saracatinib 0.003 | sotrastaurin 0.001 | alvocidib 0 | Tubastatin A -0.039 | [8] -0.008 | defactinib -0.008 | rucaparib -0.028 | [9] -0.032 | encorafenib -0.018 | [10] 0.039

ATP2A2 (UniProt P16615)
inactive: [1] -0.026 | volasertib -0.123 | [2] 0.02 | epoxomicin 0.008 | [3] -0.001 | [4] -0.044 | [5] 0.003 | rosiglitazone 0.041 | [6] -0.076 | [7] 0.036 | saracatinib 0.03 | sotrastaurin 0.012 | alvocidib -0.053 | Tubastatin A -0.044 | [8] 0.006 | defactinib -0.031 | rucaparib -0.034 | [9] 0.1 | encorafenib 0.035 | [10] -0.016

ATP6V1E1 (UniProt P36543)
inactive: [1] -0.057 | volasertib 0.037 | [2] 0.018 | epoxomicin 0.007 | [3] 0.035 | [4] -0.161 | [5] 0.03 | rosiglitazone 0.033 | [6] -0.008 | [7] 0.015 | saracatinib -0.092 | sotrastaurin 0.022 | alvocidib -0.036 | Tubastatin A 0.019 | [8] -0.03 | defactinib -0.045 | rucaparib 0.013 | [9] 0.022 | encorafenib 0.01 | [10] -0.043

ARV1 (UniProt Q9H2C2)
inactive: [1] 0.11 | volasertib -0.214 | [2] 0.002 | epoxomicin 0.068 | [3] -0.006 | [4] -0.039 | [5] 0.047 | rosiglitazone 0.004 | [6] -0.101 | [7] 0.116 | saracatinib 0.074 | sotrastaurin 0.024 | alvocidib 0.009 | Tubastatin A -0.021 | [8] 0.032 | defactinib -0.026 | rucaparib -0.044 | [9] -0.062 | encorafenib 0.106 | [10] -0.032

ARIH2 (UniProt O95376)
inactive: [1] -0.074 | volasertib -0.116 | [2] 0.012 | epoxomicin 0.053 | [3] 0.008 | [4] -0.009 | [5] -0.016 | rosiglitazone -0.014 | [6] -0.094 | [7] -0.042 | saracatinib 0.034 | sotrastaurin -0.009 | alvocidib 0.028 | Tubastatin A -0.008 | [8] -0.013 | defactinib -0.056 | rucaparib -0.047 | [9] 0.023 | encorafenib 0.018 | [10] 0.022

ATG7 (UniProt O95352)
inactive: [1] 0.006 | volasertib -0.073 | [2] 0.031 | epoxomicin 0.004 | [3] -0.026 | [4] -0.023 | [5] 0.076 | rosiglitazone 0.024 | [6] -0.04 | [7] 0.023 | saracatinib 0.012 | sotrastaurin -0.002 | alvocidib -0.121 | Tubastatin A 0.04 | [8] -0.003 | defactinib -0.017 | rucaparib -0.017 | [9] 0.036 | encorafenib 0.04 | [10] -0.007

ARRB1 (UniProt P49407)
inactive: [1] -0.01 | volasertib -0.023 | [2] 0.016 | epoxomicin -0.021 | [3] 0.017 | [4] -0.073 | [5] -0.01 | rosiglitazone 0 | [6] -0.079 | [7] 0.068 | saracatinib 0.022 | sotrastaurin 0.02 | alvocidib -0.105 | Tubastatin A -0.02 | [8] -0.017 | defactinib -0.073 | rucaparib -0.016 | [9] 0.006 | encorafenib 0.004 | [10] 0.002

ATP1A3 isoform 3 (UniProt P13637)
inactive: [1] 0.093 | volasertib 0.073 | [2] -0.065 | epoxomicin -0.032 | [3] 0.056 | [4] -0.022 | [5] -0.043 | rosiglitazone -0.027 | [6] -0.061 | [7] 0.163 | saracatinib 0.01 | sotrastaurin 0.031 | alvocidib 0.068 | Tubastatin A -0.075 | [8] -0.041 | defactinib -0.039 | rucaparib -0.02 | [9] -0.021 | encorafenib -0.005 | [10] 0.048

ATPAF2 (UniProt Q8N5M1)
inactive: [1] 0.121 | volasertib 0 | [2] -0.024 | epoxomicin -0.043 | [3] -0.004 | [4] 0.052 | [5] -0.005 | rosiglitazone 0.03 | [6] 0.032 | [7] 0.034 | saracatinib 0.039 | sotrastaurin 0.057 | alvocidib -0.038 | Tubastatin A -0.076 | [8] -0.035 | defactinib -0.028 | rucaparib -0.025 | [9] 0.022 | encorafenib -0.041 | [10] -0.009

ASF1A (UniProt Q9Y294)
inactive: [1] -0.034 | volasertib -0.054 | [2] 0.031 | epoxomicin -0.013 | [3] -0.04 | [4] -0.003 | [5] 0.006 | rosiglitazone -0.014 | [6] 0.102 | [7] -0.016 | saracatinib 0.072 | sotrastaurin -0.003 | alvocidib -0.001 | Tubastatin A 0.018 | [8] -0.021 | defactinib -0.076 | rucaparib -0.016 | [9] -0.087 | encorafenib 0.01 | [10] 0.037

ATP5PF isoform 2 (UniProt P18859)
inactive: [1] 0.038 | volasertib -0.004 | [2] -0.033 | epoxomicin 0.307 | [3] 0.106 | [4] 0.049 | [5] -0.079 | rosiglitazone 0.053 | [6] -0.033 | [7] 0.31 | saracatinib -0.101 | sotrastaurin 0.057 | alvocidib -0.019 | Tubastatin A 0.031 | [8] 0.046 | defactinib -0.004 | rucaparib 0.103 | [9] -0.054 | encorafenib -0.046 | [10] -0.014

ARPC1B (UniProt O15143)
inactive: [1] 0.061 | volasertib 0.004 | [2] -0.004 | epoxomicin 0.023 | [3] 0.014 | [4] -0.068 | [5] 0.06 | rosiglitazone -0.034 | [6] -0.077 | [7] 0.175 | saracatinib 0.08 | sotrastaurin -0.027 | alvocidib -0.058 | Tubastatin A -0.019 | [8] 0.017 | defactinib -0.019 | rucaparib -0.062 | [9] -0.042 | encorafenib 0.149 | [10] -0.067
